Results are given in words; binding and its absence hold for the method and conditions named. Binding seen in cells or lysates may run through a third protein. These calls come from enrichment with a bait or labelling near it, and not all partners need be listed.
Target: IκBα (human (endogenous in DB)) (UniProt P25963)
Test: affinity purification with mass spectrometry; immunoprecipitation with IκBα antibodies from DB cells treated with chidamide or left untreated for 24 h; SDS-PAGE, bands excised, trypsin digestion, LC-MS

Chains of the proteins cited; added tags and fusions are not shown.
UniProt P25963: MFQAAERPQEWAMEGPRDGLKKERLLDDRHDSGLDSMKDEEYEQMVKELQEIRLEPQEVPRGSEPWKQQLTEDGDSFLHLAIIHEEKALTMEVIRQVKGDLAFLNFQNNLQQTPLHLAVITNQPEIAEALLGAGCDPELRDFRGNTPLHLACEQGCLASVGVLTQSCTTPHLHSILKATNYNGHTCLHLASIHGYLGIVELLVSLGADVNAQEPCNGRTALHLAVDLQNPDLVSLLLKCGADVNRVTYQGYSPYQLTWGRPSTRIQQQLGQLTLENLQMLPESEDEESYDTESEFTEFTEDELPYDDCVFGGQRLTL
UniProt P16401: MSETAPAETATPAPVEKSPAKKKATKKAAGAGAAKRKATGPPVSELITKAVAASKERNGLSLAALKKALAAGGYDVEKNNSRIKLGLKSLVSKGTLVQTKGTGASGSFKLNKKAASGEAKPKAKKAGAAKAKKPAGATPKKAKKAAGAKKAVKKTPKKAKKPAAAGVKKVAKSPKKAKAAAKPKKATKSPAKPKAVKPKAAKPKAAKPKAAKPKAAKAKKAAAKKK

- binding: binds
Substance: Histone H1.5 (from UniProt P16401 1-226)

— article PMC12501026
